The text below walks through data of PubChem BioAssay AID248 (DTP/NCI, 2004).

The list is a part of this screen's results and no random one: it is rich in T/C values a quarter to a half above the control, in often repeated tests (any T/C) and in doses without a T/C. Other doses and runs of a compound stand elsewhere. T/C is the treated group as % of the vehicle group. Some entries give survivors of the animals treated and no T/C: the source holds a T/C of zero for them, seemingly a mark for toxic or unscored doses. Some survivor counts are full or nearly so, which does not show that the dose was tolerated: the source hardly ever lists a survival T/C far under the control, and the zero likely stands for such cases as well. Survivors were counted at the toxicity check, usually on the fifth day, unless a day is given; later deaths do not show. Schedules are NCI's codes, taken here to give the interval after Q, in days (D) or hours (H), and the number of doses after X. Some schedule codes hold Z or #, which are not explained here. Where survival is the endpoint, this PubChem deposit counts one and a half times the control or more as active, and values a quarter to a half above the control carry no call in these data; other NCI protocols may use other cut-offs.

In the test the test system is L1210 leukemia ip in BDF1 mice, survival T/C. In words: NCI In Vivo Anticancer Drug Screen. Data for tumor model L1210 Leukemia (intraperitoneal) in B6D2F1 (BDF1) mice. Particulars: T/C endpoint: mean survival time, higher T/C = longer survival.
Setting [1] is: dose: 100.0 mg/kg/injection, schedule: Q01DX005 (ip), vehicle: other.
[2] abbreviates: dose: 400.0 mg/kg/injection, schedule: Q01DX009 (ip), vehicle: Klucel (hydroxypropylcellulose) (HPC).
Where [3] appears, read: dose: 400.0 mg/kg/injection, schedule: Q04DX003 (ip), vehicle: Klucel (hydroxypropylcellulose) (HPC).
Where [4] appears, read: dose: 50.0 mg/kg/injection, schedule: Q04DX002 (ip), vehicle: saline with Tween-80.
The mark [5] stands for this setting: dose: 100.0 mg/kg/injection, schedule: Q04DX002 (ip), vehicle: saline with Tween-80.
Where [6] appears, read: dose: 200.0 mg/kg/injection, schedule: Q04DX002 (ip), vehicle: saline with Tween-80.
Setting [7] is: dose: 400.0 mg/kg/injection, schedule: Q04DX002 (ip), vehicle: saline with Tween-80.
[8] abbreviates: dose: 200.0 mg/kg/injection, schedule: Q01DX009 (ip), vehicle: Klucel (hydroxypropylcellulose) (HPC).

Consider `NNc1ccnc2c1cnn2C1OC(CO)C(O)C1O` (centres undefined), for which the survivor count reads like this: (dose: 50.0 mg/kg/injection, schedule: Q01DX005 (ip), vehicle: other) 3 of 3; under setting [1], 3 of 3; (dose: 150.0 mg/kg/injection, schedule: Q01DX005 (ip), vehicle: other) 1 of 3; (dose: 200.0 mg/kg/injection, schedule: Q01DX005 (ip), vehicle: other) 2 of 3. In addition, the T/C under setting [1] is 125 % of control.
As for `CCCC(C)OP(=O)(OCC)OC(C)CC` (centres undefined), under setting [2], the survivor count is 0 of 6.
`COc1cc2ccc(CCNCc3ccccc3)cc2cc1OC`: the survivor count (dose: 200.0 mg/kg/injection, schedule: Q04DX003 (ip), vehicle: saline) was 1 of 6 and the survivor count (dose: 400.0 mg/kg/injection, schedule: Q04DX003 (ip), vehicle: saline) is 0 of 6.
Regarding `C=CCSC(=S)N(C)C`, the survivor count reads like this: (dose: 100.0 mg/kg/injection, schedule: Q04DX002 (ip), vehicle: saline) 0 of 3; (dose: 200.0 mg/kg/injection, schedule: Q04DX002 (ip), vehicle: saline) 0 of 3; (dose: 400.0 mg/kg/injection, schedule: Q04DX002 (ip), vehicle: saline) 0 of 3.
Consider `CN(C)CCCC1(c2cccc3ccccc23)CCCN(C)C1=O` (centres undefined), for which the survivor count (dose: 100.0 mg/kg/injection, schedule: Q04DX003 (ip), vehicle: Klucel (hydroxypropylcellulose) (HPC)) is 0 of 6; the survivor count (dose: 200.0 mg/kg/injection, schedule: Q04DX003 (ip), vehicle: Klucel (hydroxypropylcellulose) (HPC)) is listed as 0 of 6; the survivor count under setting [3] is reported as 0 of 6.
Consider `CCOC(=O)C(=Cc1ccccc1Cl)C(=O)OCC`, for which the survivor count under setting [2] is given as 0 of 6 and the survivor count under setting [3] is given as 6 of 6.
For the compound `CC1CC(C)(C)NC(C2CCC=CO2)N1` (centres undefined), the survivor count (dose: 66.0 mg/kg/injection, schedule: Q01DX Z (ip), vehicle: saline) is 6 of 6.
Turning to `C=CCc1ccc2c(C)cc[n+](C)c2c1O`, under “dose: 400.0 mg/kg/injection, schedule: Q01DX001 (ip), vehicle: saline”, the survivor count is listed as 1 of 4.
Consider `NC(=NCc1ccccc1)c1ccc(N=C(N)c2ccc(C(N)=Nc3ccc(C(N)=NCc4ccccc4)cc3)cc2)cc1`, for which the T/C is 134 % of control (dose: 9.0 mg/kg/injection, schedule: Q01DX015 (ip), vehicle: water) and 145 % of control (dose: 12.5 mg/kg/injection, schedule: Q01DX015 (ip), vehicle: water). For the same compound, the survivor count is 3 of 6 (dose: 31.0 mg/kg/injection, schedule: Q01DX001 (ip), vehicle: water); 0 of 6 (dose: 37.5 mg/kg/injection, schedule: Q01DX015 (ip), vehicle: water); 0 of 6 (dose: 50.0 mg/kg/injection, schedule: Q01DX009 (ip), vehicle: saline); 0 of 6 (dose: 50.0 mg/kg/injection, schedule: Q01DX015 (ip), vehicle: water); 0 of 6 (dose: 62.0 mg/kg/injection, schedule: Q01DX001 (ip), vehicle: water); 0 of 6 (dose: 100.0 mg/kg/injection, schedule: Q01DX015 (ip), vehicle: water). For the same compound, the survivor count is, setting by setting: (dose: 125.0 mg/kg/injection, schedule: Q01DX001 (ip), vehicle: water) 0 of 6; (dose: 250.0 mg/kg/injection, schedule: Q01DX001 (ip), vehicle: water) 0 of 6.
As for `N#CC(O)c1ccc([N+](=O)[O-])cc1` (centres undefined), the survivor count runs as follows: under setting [4], 0 of 3; under setting [5], 0 of 3; under setting [6], 0 of 3; under setting [7], 0 of 3.
For `O=C(O)C(C(=O)c1cccc([N+](=O)[O-])c1)C(=O)c1cccc([N+](=O)[O-])c1`, the survivor count (dose: 100.0 mg/kg/injection, schedule: Q01DX001 (ip), vehicle: carboxymethylcellulose (CMC)) is 4 of 4.
Turning to `CC(C)=C1C2CCC1C1C(=O)OC(=O)C21` (centres undefined), the survivor count by setting is: under setting [8], 4 of 6; (dose: 400.0 mg/kg/injection, schedule: Q01DX001 (ip), vehicle: Klucel (hydroxypropylcellulose) (HPC)) 2 of 6.
On to `CC[Si](C)(C)c1ccc(CCN2CC2)s1`, for which the survivor count runs as follows: (dose: 200.0 mg/kg/injection, schedule: Q01DX001 (ip), vehicle: carboxymethylcellulose (CMC)) 0 of 4; (dose: 400.0 mg/kg/injection, schedule: Q01DX001 (ip), vehicle: carboxymethylcellulose (CMC)) 0 of 4.
Regarding `CCCC[S][Pb]([CH2]C)([CH2]C)[CH2]C`, the survivor count reads like this: (dose: 12.5 mg/kg/injection, schedule: Q01DX009 (sc), vehicle: olive oil, sesame oil, peanut oil) 0 of 3; (dose: 25.0 mg/kg/injection, schedule: Q01DX009 (sc), vehicle: olive oil, sesame oil, peanut oil) 0 of 3; under setting [4], 1 of 3; under setting [5], 0 of 3; under setting [6], 0 of 3; under setting [7], 0 of 3.
In the case of `COc1cc(Cl)ccc1NC(=O)Oc1ccc2c(C)cc(=O)oc2c1`, the survivor count is 5 of 6 under setting [8] and 0 of 6 under setting [2].
For the compound `CCCCN(C)N=Nc1ccc(C(=N)N)cc1`, the survivor count is 0 of 6 (dose: 100.0 mg/kg/injection, schedule: Q01DX001 (ip), vehicle: alkali diluted with CMC); 0 of 6 (dose: 200.0 mg/kg/injection, schedule: Q01DX001 (ip), vehicle: alkali diluted with CMC); 0 of 6 (dose: 400.0 mg/kg/injection, schedule: Q01DX001 (ip), vehicle: alkali diluted with CMC).
With `Cc1ccc(C(=O)OCC(=O)c2ccc(-c3ccccc3)cc2)cc1`, the survivor count (dose: 400.0 mg/kg/injection, schedule: Q01DX001 (ip), vehicle: other) is given as 6 of 6.
